In this data set the target is single-strand binding protein (SSB) (Escherichia coli DH5alpha) (UniProt P0AGE0). The data set is described as follows: fluorescence polarization. The following applies: 20 nM SSB, 5 nM DNA; FP: 25 mM MOPS pH 7.5, 1.25 mM MgCl2, 0.0025 mg/mL BSA, 0.005% Tween 20, 0.025 mM DTT, 1% DMSO, temperature not stated; recombinant …; single-stranded DNA. For orientation: Fluorescence polarisation rises when a labelled molecule tumbles more slowly, as on binding a larger partner.

Amino acid sequences for entries named in this document (tags omitted). A change or cut given only in a name is not applied to a line headed by its entry.
UniProt P0AGE0: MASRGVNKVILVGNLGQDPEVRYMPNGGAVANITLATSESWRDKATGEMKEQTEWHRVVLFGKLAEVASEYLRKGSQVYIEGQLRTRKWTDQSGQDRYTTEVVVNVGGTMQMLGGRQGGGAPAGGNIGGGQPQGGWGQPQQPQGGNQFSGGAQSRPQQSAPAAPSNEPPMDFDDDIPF

For at least one entry, the source does not settle the construct or the ends of the probe. At least one verdict was read from the data and is not stated in words by the source.

Regarding TTTTTTTTTTTTTTT [Cy5-dT15], the binding result is on record as “binds”.
